Source: publication PMC10897203
Results are given in words; binding and its absence hold for the method and conditions named. For some assays here: In cells and extracts the contact can be indirect. Some results given as binding are weak or reduced against the parent protein; the word gives no strength. For some assays here: Tags and fused reporters may be left off the sequences shown.

The chains behind the UniProt entries cited, without tags or fusion partners.
UniProt P61765: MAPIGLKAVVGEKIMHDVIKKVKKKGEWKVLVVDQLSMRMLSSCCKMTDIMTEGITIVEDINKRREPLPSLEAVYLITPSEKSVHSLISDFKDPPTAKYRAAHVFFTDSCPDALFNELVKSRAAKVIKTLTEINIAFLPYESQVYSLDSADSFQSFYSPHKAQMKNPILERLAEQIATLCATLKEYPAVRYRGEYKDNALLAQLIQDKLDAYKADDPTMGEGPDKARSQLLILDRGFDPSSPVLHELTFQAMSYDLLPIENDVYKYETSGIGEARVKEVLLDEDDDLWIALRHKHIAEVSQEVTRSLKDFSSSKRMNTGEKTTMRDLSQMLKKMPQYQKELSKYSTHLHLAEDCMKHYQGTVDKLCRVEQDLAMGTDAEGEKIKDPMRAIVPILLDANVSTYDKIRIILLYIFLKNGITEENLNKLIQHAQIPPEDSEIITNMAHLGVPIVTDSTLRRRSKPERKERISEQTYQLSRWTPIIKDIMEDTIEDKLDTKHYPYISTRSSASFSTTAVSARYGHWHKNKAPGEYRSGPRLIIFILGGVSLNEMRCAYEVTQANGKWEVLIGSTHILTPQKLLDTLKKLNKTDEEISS
UniProt O75608: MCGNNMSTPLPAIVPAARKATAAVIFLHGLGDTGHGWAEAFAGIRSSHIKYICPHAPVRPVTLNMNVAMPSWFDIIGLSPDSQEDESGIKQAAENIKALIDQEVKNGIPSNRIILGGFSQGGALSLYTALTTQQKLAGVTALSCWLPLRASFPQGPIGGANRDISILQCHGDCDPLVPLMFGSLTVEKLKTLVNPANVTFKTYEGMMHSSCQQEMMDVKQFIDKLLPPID

Tests used:
[1] = target: T1, GFP-DDHD2 (pEGFP-C1-DDHD2^WT) (UniProt O94830); test: co-IP; GFP-trap (anti-GFP magnetic beads, 1 h at 4 °C) on lysates of transfected PC12 or STXBP1/2 DKO PC12 cells, non-stimulated or stimulated (high K+ in the text, 2 mM BaCl2 in legend and methods); western blot
T1 sequence: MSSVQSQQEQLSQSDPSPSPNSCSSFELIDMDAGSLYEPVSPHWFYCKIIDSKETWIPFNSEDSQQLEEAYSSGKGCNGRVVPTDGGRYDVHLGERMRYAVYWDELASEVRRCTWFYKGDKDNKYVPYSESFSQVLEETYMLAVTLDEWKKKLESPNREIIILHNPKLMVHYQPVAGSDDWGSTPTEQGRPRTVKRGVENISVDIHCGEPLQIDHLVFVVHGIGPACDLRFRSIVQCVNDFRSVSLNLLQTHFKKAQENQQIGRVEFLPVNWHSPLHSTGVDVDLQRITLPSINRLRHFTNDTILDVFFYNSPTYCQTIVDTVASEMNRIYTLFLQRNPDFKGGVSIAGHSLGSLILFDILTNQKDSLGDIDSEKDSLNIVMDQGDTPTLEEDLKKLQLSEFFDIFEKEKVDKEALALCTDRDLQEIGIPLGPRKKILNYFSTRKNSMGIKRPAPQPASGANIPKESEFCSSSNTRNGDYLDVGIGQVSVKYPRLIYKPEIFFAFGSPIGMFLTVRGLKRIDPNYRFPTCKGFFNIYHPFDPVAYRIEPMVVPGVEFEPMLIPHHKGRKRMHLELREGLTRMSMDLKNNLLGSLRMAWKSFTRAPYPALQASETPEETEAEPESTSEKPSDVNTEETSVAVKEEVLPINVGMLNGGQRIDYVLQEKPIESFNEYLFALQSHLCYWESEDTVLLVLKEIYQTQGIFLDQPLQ

[2] = target: GFP-tagged STXBP1^WT (ALPHAScreen) (UniProt P61765); test: AlphaScreen or HTRF; protein pair co-expressed in Leishmania tarentolae extract (one with C-terminal GFP, the other with C-terminal Cherry-cMyc), diluted in 25 mM HEPES, 50 mM NaCl; biotin-coupled GFP-nanotrap on streptavidin donor beads, anti-cMyc acceptor beads; room temperature

binding [1] | binding [2] | Substance
binds |  | Syntaxin-binding protein 1 (STXBP1), endogenous in PC12 cells (from UniProt P61765 1-594)
 | binds | myc-tagged LYPLA1 (ALPHAScreen) (from UniProt O75608 1-230) (enzyme)
